Source: PubChem BioAssay AID493014 (National Center for Advancing Translational Sciences (NCATS), 2011)
The other results are listed elsewhere or left out. The main result of the screen is listed elsewhere. These columns were measured beside it and carry no call. Compounds called inactive in the main read-out are mostly missing here. Potencies come from curve fits of mixed quality, noted in brackets.

Test: qHTS Assay to Find Inhibitors of Chronic Active B-Cell Receptor Signaling
Conditions: ABC-DLBCL IkBa-CBG/CBR reporter, luminescence ratio (green luciferase fused to IkBa over red control in TMD8 lymphoma cells), 4 h
Summary of the method: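 TMD8 ABC-DLBCL cells carrying doxycycline-inducible green luciferase fused to IkappaBalpha plus unfused red luciferase were exposed to compounds (up to 46 uM) for 4 hrs at 37C. Activity came from the overlap-corrected green/red luminescence ratio.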

[1] = measured here: CBR red luminescence, cell number
[2] = measured here: IkBa-CBG green luminescence

Row | Compound | AC50 [1] | AC50 [2]
1 | Cc1ccc(C)c(S(=O)(=O)N2CCN(C(=O)c3ccccn3)CC2)c1 | 0.731 µM [rising, full curve, poor fit] | –
2 | Nc1ccccc1-c1nc2ccccc2c(=O)o1 | 35.5 µM [falling, single point] | –
3 | CS(=O)(=O)N(CC(O)Cn1c2ccccc2c2ccccc21)c1cccc2ccccc12 (centres undefined) | 16.4 µM [falling, partial curve, poor fit] | –
4 | CCC(CC)NC(=O)c1cc2c(C)nn(Cc3ccccc3Cl)c2s1 | – | 8.2 µM [falling, partial curve, poor fit]
5 | O=C(c1ccncc1)N1CCN(C(=O)c2ccncc2)CC1 | 29.1 µM [falling, single point] | –
6 | COC(=O)CSc1nnc(-c2ccc(OC)cc2OC)o1 | 20.6 µM [rising, single point] | –
7 | CC1(C)CC(=O)C(C=Nc2ccc3c(c2)OCO3)=C(O)C1 | 5.8 µM [rising, full curve] | –
8 | CCC(=O)Nc1cccc(C2=NOC3(C2)C[C@@H](C(N)=O)N(C(=O)C(c2ccccc2)c2ccccc2)C3)c1 (some centres undefined) | 6.31 µM [falling, single point] | –
9 | CSc1cccc(NC(=O)CCn2c(=O)c3cccn3c3cccnc32)c1 | 6.31 µM [rising, partial curve, poor fit] | –
10 | CC(C)Nc1ncnc2c1cnn2Cc1ccc(Cl)cc1 | 5.01 µM [rising, single point] | –
11 | Cc1ccccc1CC1(CO)CCCN(Cc2cn[nH]c2-c2ccccc2)C1 (centres undefined) | 6.31 µM [rising, single point] | –
12 | c1ccc(-c2oc3ncnc(N4CCOCC4)c3c2-c2ccccc2)cc1 | 2.59 µM [rising, partial curve] | 1.64 µM [falling, partial curve, poor fit]
13 | CC(C)(C)OC(=O)NCc1ccc(NC(=O)c2nc[nH]c2C(=O)N[C@@H](Cc2ccccc2)C(=O)OC(C)(C)C)cc1 | 1 µM [rising, partial curve, poor fit] | –
14 | COc1ccccc1Nc1c2ccccc2nc2ccccc12 | 8.91 µM [falling, partial curve] | –
15 | COC(=O)c1cc(=O)nc2sc3ccccc3n12 | 7.08 µM [rising, partial curve, poor fit] | –
16 | COc1ccc(C2=NN(CC(=O)Nc3ccccc3C)C(=O)CC2)cc1 | 22.4 µM [rising, single point] | –
17 | Cc1nn2c(N)c(-c3ccccc3)cnc2c1-c1ccccc1 | 1 µM [rising, full curve, poor fit] | –
18 | Cc1ccc(OCC(=O)Nc2ccc3c(c2)OCO3)cc1C | 12.6 µM [falling, partial curve] | –
19 | CCSC1=NC(C)(C)C=C(/C=C/c2ccc(Cl)cc2Cl)N1 | 13 µM [falling, partial curve] | 14.6 µM [rising, partial curve, poor fit]
20 | O=C(CN1C(=O)c2ccccc2S1(=O)=O)Nc1ccon1 | 5.8 µM [falling, single point] | –
21 | COc1ccc(C(=O)Nc2nnc(SCC(=O)Nc3ccc(NC(C)=O)cc3)s2)c(OC)c1 | 0.794 µM [falling, full curve, poor fit] | –

An excerpt of these results, as tab-separated lines.
Row	Compound	AC50 [1]	AC50 [2]
8	CCC(=O)Nc1cccc(C2=NOC3(C2)C[C@@H](C(N)=O)N(C(=O)C(c2ccccc2)c2ccccc2)C3)c1 (some centres undefined)	6.31 µM [falling, single point]	–
9	CSc1cccc(NC(=O)CCn2c(=O)c3cccn3c3cccnc32)c1	6.31 µM [rising, partial curve, poor fit]	–
10	CC(C)Nc1ncnc2c1cnn2Cc1ccc(Cl)cc1	5.01 µM [rising, single point]	–
11	Cc1ccccc1CC1(CO)CCCN(Cc2cn[nH]c2-c2ccccc2)C1 (centres undefined)	6.31 µM [rising, single point]	–
12	c1ccc(-c2oc3ncnc(N4CCOCC4)c3c2-c2ccccc2)cc1	2.59 µM [rising, partial curve]	1.64 µM [falling, partial curve, poor fit]
13	CC(C)(C)OC(=O)NCc1ccc(NC(=O)c2nc[nH]c2C(=O)N[C@@H](Cc2ccccc2)C(=O)OC(C)(C)C)cc1	1 µM [rising, partial curve, poor fit]	–
14	COc1ccccc1Nc1c2ccccc2nc2ccccc12	8.91 µM [falling, partial curve]	–

Remaining list, next part

Row | Compound | AC50 [1] | AC50 [2]
22 | Cc1cc(NCc2ccccc2)n2ncc(-c3ccccc3)c2n1 | 12.6 µM [falling, partial curve, poor fit] | –
23 | CN(CCc1cn[nH]c1)Cc1nc(Cc2ccccc2)no1 | 4.47 µM [rising, full curve, poor fit] | –
24 | c1ccc(Oc2ncnc3sccc23)cc1 | 0.398 µM [rising, full curve, poor fit] | –
25 | FC(F)(F)c1nc(N2CCCC2)ncc1-c1nnnn1-c1ccc(Cl)cc1 | 32.6 µM [falling, single point] | –
26 | N#C/C(=C(/O)c1ccco1)c1nc2ccccc2[nH]1 | 2.82 µM [falling, partial curve, poor fit] | –
27 | COc1ccccc1NC(=O)CSc1nc2ccccc2c(=O)n1C | 3.98 µM [falling, partial curve, poor fit] | –
28 | O=c1c(-c2ccc(O)cc2)coc2cc(OC3OC(CO)C(O)C(O)C3O)cc(O)c12 (centres undefined) | 10.3 µM [rising, partial curve, poor fit] | –
29 | Fc1cccc(COc2ccccc2CNc2ccccc2)c1 | 29.1 µM [rising, single point] | –
30 | Cc1ccc2nc(NC(=O)C3CCN(C(=O)c4ccc(F)cc4)CC3)sc2c1 | 3.16 µM [falling, partial curve, poor fit] | –
31 | Cc1ccc2sc(NC(=O)CN3C(=O)CCC3=O)nc2c1C | 29.1 µM [falling, single point] | –
32 | Cc1[nH]c(C)c(S(=O)(=O)N2CCN(c3ccccc3)CC2)c1C(=O)N1CCCC1 | 6.31 µM [rising, single point] | –
33 | NC(=O)CSc1nc2ccccc2n1Cc1ccccc1 | 8.2 µM [falling, partial curve, poor fit] | –
34 | CCn1cc(Br)c(C(=O)Nc2ccc(OC)cc2)n1 | 0.58 µM [rising, partial curve, poor fit] | –
35 | CCc1ccc(NC(=O)c2cnc(SC)nc2C)cc1 | 8.91 µM [falling, partial curve, poor fit] | –
36 | O=S(=O)(c1cnc(Cl)c(Cl)c1)N1CCCc2ccccc21 | 2.31 µM [falling, full curve] | 29.1 µM [falling, single point]
37 | CNC(=O)CN(c1cc([N+](=O)[O-])ccc1OC)S(C)(=O)=O | 2.06 µM [rising, full curve] | –
38 | CN(c1nc2ccccc2nc1Cl)S(=O)(=O)c1ccccc1 | 0.562 µM [rising, partial curve, poor fit] | –
39 | CC(C)CNC(=O)c1cccc(NC(=O)CSc2ccc(Cl)cc2)c1 | 6.51 µM [rising, single point] | –
40 | O=C(Nc1ccc2oc(-c3ccncc3)nc2c1)c1cccs1 | 0.651 µM [rising, full curve, poor fit] | –
41 | O=C(CNC(=O)/C(=C\c1ccc(Br)cc1)NC(=O)c1ccccc1)OCc1ccccc1 | 0.82 µM [falling, full curve, poor fit] | –
